Consider three compounds from PubChem BioAssay AID250 (DTP/NCI, 2004).

The list is a part of this screen's results and no random one: its compounds were picked by chemical class. Not every dose and run of a compound is shown. T/C is the treated group as % of the vehicle group. For survival time, the PubChem record calls one and a half times the control and up active, and a quarter to a half above the control has no call in these data; cut-offs in other NCI protocols can differ. Some T/C values are marked as having no survivor count here; that says nothing about deaths at the dose. Schedules are NCI's codes, taken here to give the interval after Q, in days (D) or hours (H), and the number of doses after X. Some schedule codes hold Z or #, which are not explained here. Signs of the kind (2×) stand for listed records that agree. Some entries were tested several times; their values stand side by side, smallest first.

Experiment [1] relates to BDF1 mice, L1210 leukemia sc. The experiment can be described thus: NCI In Vivo Anticancer Drug Screen. Data for tumor model L1210 Leukemia (subcutaneous) in B6D2F1 (BDF1) mice. To be noted: T/C endpoint: median survival time, schedule: Q01DX Z (sc), higher T/C = longer survival. The procedure:
(§1) The antitumor activity of compounds was measured in mice bearing transplantable tumors. Survival or tumor size were measured and the results are expressed as the measurement made in the treated group (T) divided by the measurement made in the vehicle treated control group (C). The tumor model used in this assay is L1210 Leukemia (subcutaneous) in B6D2F1 (BDF1) mice

The test system of experiment [2] is BDF1 mice, L1210 leukemia sc, survival T/C. The description is as above. Particulars: T/C endpoint: median survival time, higher T/C = longer survival. The procedure: as §1
Where [3] appears, read: dose: 65.0 mg/kg/injection, vehicle: saline.
Where [4] appears, read: dose: 108.0 mg/kg/injection, vehicle: saline.
Where [5] appears, read: dose: 180.0 mg/kg/injection, vehicle: saline.
[6] abbreviates: dose: 23.0 mg/kg/injection, schedule: Q01DX Z (sc), vehicle: saline.
Setting [7] is: dose: 39.0 mg/kg/injection, schedule: Q01DX Z (sc), vehicle: saline.

Regarding `ClCCNCCCl`, the T/C in experiment [1] (setting [3]) was 133 % of control [survivor count not shown]; in experiment [1] (dose: 108.0 mg/kg/injection, vehicle: methylcellulose (MC)), 127 % of control [survivor count not shown]; in experiment [1] (setting [4]) it was 136 % of control [survivor count not shown]; in experiment [1] (setting [5]) it was 133 % of control [survivor count not shown]; in experiment [2] (dose: 10.0 mg/kg/injection, schedule: Q01DX009 (ip), vehicle: saline), 90 % of control [survivor count not shown]; in experiment [2] (dose: 14.0 mg/kg/injection, schedule: Q01DX Z (sc), vehicle: saline), 100 % of control [survivor count not shown] (2×). Also, the T/C in experiment [2] (dose: 20.0 mg/kg/injection, schedule: Q01DX009 (ip), vehicle: saline) is 100 % of control [survivor count not shown]; in experiment [2] (dose: 23.0 mg/kg/injection, schedule: Q01DX Z (sc), vehicle: methylcellulose (MC)), 100 % of control [survivor count not shown]; in experiment [2] (setting [6]), 100 % of control [survivor count not shown] (3×); in experiment [2] (dose: 39.0 mg/kg/injection, schedule: Q01DX Z (sc), vehicle: methylcellulose (MC)), 104 % of control [survivor count not shown]; in experiment [2] (setting [7]), 100 [survivor count not shown] and 105 % of control [survivor count not shown]; in experiment [2] (dose: 40.0 mg/kg/injection, schedule: Q01DX009 (ip), vehicle: saline) it was 110 % of control [survivor count not shown]. Also, the T/C in experiment [2] (dose: 65.0 mg/kg/injection, schedule: Q01DX Z (sc), vehicle: methylcellulose (MC)) is 122 % of control [survivor count not shown]; in experiment [2] (dose: 65.0 mg/kg/injection, schedule: Q01DX Z (sc), vehicle: saline), 109 [survivor count not shown] and 113 % of control [survivor count not shown]; in experiment [2] (dose: 80.0 mg/kg/injection, schedule: Q01DX009 (ip), vehicle: saline), 115 % of control [survivor count not shown]; in experiment [2] (dose: 108.0 mg/kg/injection, schedule: Q01DX Z (sc), vehicle: saline), 118 [survivor count not shown] and 122 % of control [survivor count not shown]; in experiment [2] (dose: 180.0 mg/kg/injection, schedule: Q01DX Z (sc), vehicle: methylcellulose (MC)), 109 % of control [survivor count not shown]; in experiment [2] (dose: 180.0 mg/kg/injection, schedule: Q01DX Z (sc), vehicle: saline), 118 % of control [survivor count not shown]. Also, the T/C in experiment [2] (dose: 180.0 mg/kg/injection, schedule: Q03DX Z (sc), vehicle: saline) was 150 % of control [survivor count not shown]; in experiment [2] (dose: 300.0 mg/kg/injection, schedule: Q01DX Z (sc), vehicle: methylcellulose (MC)), 100 % of control [survivor count not shown]; in experiment [2] (dose: 300.0 mg/kg/injection, schedule: Q01DX Z (sc), vehicle: saline), 100 % of control [survivor count not shown]; in experiment [2] (dose: 300.0 mg/kg/injection, schedule: Q03DX Z (sc), vehicle: saline), 120 % of control [survivor count not shown]; in experiment [2] (dose: 500.0 mg/kg/injection, schedule: Q03DX Z (sc), vehicle: saline) it was 120 % of control [survivor count not shown].

`O[C@@H](CNCCCl)[C@@H](O)CNCCCl`: the T/C in experiment [1] (setting [3]) was 136 % of control [survivor count not shown]; in experiment [1] (setting [4]), 136 % of control [survivor count not shown]; in experiment [1] (setting [5]) it was 126 % of control [survivor count not shown]; in experiment [2] (dose: 5.0 mg/kg/injection, schedule: Q01DX Z (sc), vehicle: saline) it was 105 % of control [survivor count not shown]; in experiment [2] (dose: 8.4 mg/kg/injection, schedule: Q01DX Z (sc), vehicle: saline), 110 % of control [survivor count not shown]; in experiment [2] (setting [6]), 163 % of control [survivor count not shown]. Moreover, the T/C in experiment [2] (setting [7]) is 152 % of control [survivor count not shown].

In the case of `CC(C(=O)O)N(CCCl)CCCl` (stereo not drawn), the T/C in experiment [1] (dose: 14.0 mg/kg/injection, vehicle: saline) is 127 % of control [survivor count not shown]; in experiment [2] (dose: 1.8 mg/kg/injection, schedule: Q01DX Z (sc), vehicle: saline), 111 % of control [survivor count not shown]; in experiment [2] (setting [6]), 116 % of control [survivor count not shown].
